Laboratory results taken from patent US20050261472A1 (Dyax Corp., priority 1999, published 2005).

Test: general procedure: Fmoc solid-phase peptide synthesis; rink-amide AM resin, 0.8 mmol/g; DIC/HOBt (preformed OBt esters), then HBTU/DIEA (double coupling)
Settings: whole synthesis, overall, based on the starting resin substitution level, scale of the general procedure 0.3-0.6 g of resin, one disulfide bridge, sequence written open

Leu-Pro-Cys-Asp-Tyr-Tyr-Gly-Thr-Cys-Leu-Asp
isolated yield: 4%
